# Results reported in US9381254B2, “Methods for preparing polymeric reagents” (Nektar Therapeutics, priority 2005, dated 2016).
# At least one read-out could not be matched to a standard name with certainty.
# Assay: Release of glycine carbamate conjugates in 25 mM HEPES buffer at 37° C., HPLC, first order fit
# Format: physicochemical
Substance,"release t1/2 (pH 7.4, 37° C.) [h]","release t1/2 (pH 8.2, 37° C.) [h]","release t1/2 (pH 7.52±0.13, 37° C., ± range of two experiments) [h]","release t1/2 (pH 8.14±0.04, 37° C., ± range of two experiments) [h]"
"9-hydroxymethyl-2,7-di(mPEG(10,000)-methylamide)fluorene-glycine carbamate conjugate",238,132,,
"9-hydroxymethyl-4-(carboxamido mPEG(10,000)-7-(amidoglutaric amide mPEG(10,000))fluorene-glycine carbamate conjugate",,,96 ± 24,46.8 ± 3.6
